Further values from the same series stand in other lists.
Test system: gene expression in heart tissue
Experiment: Genome-wide gene expression in heart tissue of old mice fed a resveratrol-supplemented diet (Affymetrix Mouse Genome 430 2.0 array)
Format: in vivo

## Oc1ccc(/C=C/c2cc(O)cc(O)c2)cc1 [resveratrol, 3,4′,5-Trihydroxy-trans-stilbene]
1421197_a_at apoptotic chromatin condensation inducer in the nucleus
  Effect of resveratrol on changeing gene expression from old to young profile: >100%
1421215_a_at sarcolemma associated protein
  Effect of resveratrol on changeing gene expression from old to young profile: 80-90%
1421239_at interleukin 6 signal transducer
  Effect of resveratrol on changeing gene expression from old to young profile: <60%
1421333_a_at myoneurin
  Effect of resveratrol on changeing gene expression from old to young profile: 70-80%
1421441_at angiopoietin
  Effect of resveratrol on changeing gene expression from old to young profile: >100%
1421450_a_at mitogen activated protein kinase kinase kinase 4
  Effect of resveratrol on changeing gene expression from old to young profile: >100%
1421654_a_at lamin A
  Effect of resveratrol on changeing gene expression from old to young profile: >100%
1421743_a_at poly(rC) binding protein 2
  Effect of resveratrol on changeing gene expression from old to young profile: >100%
1421828_at karyopherin (importin) alpha 3
  Effect of resveratrol on changeing gene expression from old to young profile: <60%
1421832_at twisted gastrulation homolog 1 (Drosophila)
  Effect of resveratrol on changeing gene expression from old to young profile: 70-80%
1421854_at fibrinogen-like protein 2
  Effect of resveratrol on changeing gene expression from old to young profile: 70-80%
1421861_at calsyntenin 1
  Effect of resveratrol on changeing gene expression from old to young profile: >100%
1421871_at SH3-binding domain glutamic acid-rich protein like
  Effect of resveratrol on changeing gene expression from old to young profile: >100%
1421880_at myotubularin related protein 1
  Effect of resveratrol on changeing gene expression from old to young profile: 70-80%
1421895_at eukaryotic translation initiation factor 2, subunit 3, structural gene X-linked
  Effect of resveratrol on changeing gene expression from old to young profile: <60%
1421962_at DnaJ (Hsp40) homolog, subfamily B, member 5
  Effect of resveratrol on changeing gene expression from old to young profile: >100%
1421985_a_at eukaryotic translation initiation factor 4E like 3
  Effect of resveratrol on changeing gene expression from old to young profile: 70-80%
1422090_a_at 6-phosphofructo-2-kinase/fructose-2,6-biphosphatase 2
  Effect of resveratrol on changeing gene expression from old to young profile: <60%
1422375_a_at ADP-ribosyltransferase 1
  Effect of resveratrol on changeing gene expression from old to young profile: >100%
1422414_a_at calmodulin 3
  Effect of resveratrol on changeing gene expression from old to young profile: >100%
1422470_at BCL2/adenovirus E1B 19 kDa-interacting protein 1, NIP3
  Effect of resveratrol on changeing gene expression from old to young profile: 60-70%
1422521_at dynactin 1
  Effect of resveratrol on changeing gene expression from old to young profile: >100%
1422522_at fragile X mental retardation gene 2, autosomal homolog
  Effect of resveratrol on changeing gene expression from old to young profile: >100%
1422538_at exotoses (multiple)-like 2
  Effect of resveratrol on changeing gene expression from old to young profile: >100%
1422569_at YY1 transcription factor
  Effect of resveratrol on changeing gene expression from old to young profile: >100%
1422690_at serine palmitoyltransferase, long chain base subunit 1
  Effect of resveratrol on changeing gene expression from old to young profile: 70-80%
1422772_at core 1 UDP-galactose:N-acetylgalactosamine-alpha-R beta 1,3-galactosyltransferase
  Effect of resveratrol on changeing gene expression from old to young profile: <60%
1422795_at cullin 3
  Effect of resveratrol on changeing gene expression from old to young profile: 70-80%
1422811_at solute carrier family 27 (fatty acid transporter), member 1
  Effect of resveratrol on changeing gene expression from old to young profile: >100%
1422834_at potassium voltage-gated channel, Shal-related family, member 2
  Effect of resveratrol on changeing gene expression from old to young profile: 80-90%
1422842_at 5′-3′ exoribonuclease 2
  Effect of resveratrol on changeing gene expression from old to young profile: >100%
1422845_at calnexin
  Effect of resveratrol on changeing gene expression from old to young profile: >100%
1422879_at Mus musculus transcribed sequences
  Effect of resveratrol on changeing gene expression from old to young profile: 80-90%
1423041_a_at basic leucine zipper and W2 domains 1
  Effect of resveratrol on changeing gene expression from old to young profile: >100%
1423042_at DEAD/H (Asp-Glu-Ala-Asp/His) box polypeptide 3, X-linked
  Effect of resveratrol on changeing gene expression from old to young profile: 80-90%
1423051_at heterogeneous nuclear ribonucleoprotein U
  Effect of resveratrol on changeing gene expression from old to young profile: 80-90%
1423063_at DNA methyltransferase 3A
  Effect of resveratrol on changeing gene expression from old to young profile: >100%
1423089_at tropomodulin 3
  Effect of resveratrol on changeing gene expression from old to young profile: 60-70%
1423108_at solute carrier family 25 (mitochondrial carnitine/acylcarnitine translocase), member 20
  Effect of resveratrol on changeing gene expression from old to young profile: 80-90%
1423114_at ubiquitin-conjugating enzyme E2D 3 (UBC4/5 homolog, yeast)
  Effect of resveratrol on changeing gene expression from old to young profile: 60-70%
1423198_a_at expressed sequence AW011752
  Effect of resveratrol on changeing gene expression from old to young profile: >100%
1423332_at syndecan binding protein
  Effect of resveratrol on changeing gene expression from old to young profile: >100%
1423345_at degenerative spermatocyte homolog (Drosophila)
  Effect of resveratrol on changeing gene expression from old to young profile: >100%
1423368_at lysosomal-associated protein transmembrane 4A
  Effect of resveratrol on changeing gene expression from old to young profile: 80-90%
1423373_at ribonuclease P2
  Effect of resveratrol on changeing gene expression from old to young profile: >100%
1423413_at N-myc downstream regulated 1
  Effect of resveratrol on changeing gene expression from old to young profile: 70-80%
1423452_at serine/threonine kinase 17b (apoptosis-inducing)
  Effect of resveratrol on changeing gene expression from old to young profile: >100%
1423482_at uroporphyrinogen III synthase
  Effect of resveratrol on changeing gene expression from old to young profile: 90-100%
1423627_at NAD(P)H dehydrogenase, quinone 1
  Effect of resveratrol on changeing gene expression from old to young profile: 90-100%
1423652_at HESB like domain containing 2
  Effect of resveratrol on changeing gene expression from old to young profile: 60-70%
1423720_a_at SAR1a gene homolog 1 (S. cerevisiae)
  Effect of resveratrol on changeing gene expression from old to young profile: 80-90%
1423793_at DNA segment, Chr 2, ERATO Doi 391, expressed
  Effect of resveratrol on changeing gene expression from old to young profile: >100%
1423799_at suppressor of initiator codon mutations, related sequence 1 (S. cerevisiae)
  Effect of resveratrol on changeing gene expression from old to young profile: 80-90%
1424109_a_at glyoxalase 1
  Effect of resveratrol on changeing gene expression from old to young profile: >100%
1424111_at insulin-like growth factor 2 receptor
  Effect of resveratrol on changeing gene expression from old to young profile: >100%
1424126_at aminolevulinic acid synthase 1
  Effect of resveratrol on changeing gene expression from old to young profile: 60-70%
1424141_at HECT domain containing 1
  Effect of resveratrol on changeing gene expression from old to young profile: >100%
1424167_a_at phosphomannomutase 1
  Effect of resveratrol on changeing gene expression from old to young profile: 90-100%
1424269_a_at Mus musculus similar to myosin light chain, alkali, nonmuscle (LOC383643), mRNA
  Effect of resveratrol on changeing gene expression from old to young profile: >100%
1424314_at PRP3 pre-mRNA processing factor 3 homolog (yeast)
  Effect of resveratrol on changeing gene expression from old to young profile: 90-100%
